Data taken from article PMC9974482.
Results are given in words; binding and its absence hold for the method and conditions named.

Target: Acinetobacter baumannii PBP2 (aa 53 to 672), truncated soluble form (Acinetobacter baumannii ATCC 19606) (UniProt D0C8Z9)
Test: crystal structure; His6-PBP2 (53-672) crystallised alone at 18 °C, pH 4.2; two macromolecules in the asymmetric unit, space group I222; interfaces analysed in PISA; both purified

binding: no binding
B1: Acinetobacter baumannii PBP2 (aa 53 to 672), truncated soluble form (domain or fragment, UniProt D0C8Z9 53-672)
chain: ASDKNRIRLQPLPPARGYIYDRNGVLLADNYPVFTATLSKADVENVDTVIEQLQPILELTQEDVDRFKSRIKTARKTERVAIKLNLTETNIAKFSEVKYKFPGVRIETQMTRYYPHGDLFAHVIGYVGRINDKELKSIDKDLYAGTNLIGKIGVEKSYEDLLHGTPGYESVEADAHSNILRHLGRKDPTRGNDLYLSLDYGLQVVASQQLAGRRGAIVAIDPRTGEILALVSSPSFNPNLFVTGINHKDYSSLRDNIDQPLYNRAVQGVYPPGSTIKPMEAMGGLHYGIVDWATAISDPGYFHLPGDSHKFRDWKKTGHGIVNMHKAIIMSCDTYFYILANQMGIDQMNQWMRQFGFGQKTGVDLPSESEGLYPNPEWKMRTRKSKWMKGETISVSIGQGAFTATPLQLAMATAITANHGSHVVPHVLRATHGAKPFTVRNAPDGKINFNGTDEDWVKMREAMIDVIQSGTGRGIRTPLYQIAGKTGTAQVKSIAQGKRYNEAALSERQLDHGLFVGFAPADKPEIAIAVIWENGRHGGSAAQLAKPVFDYWLLTRKKNPIRPANHQVNGGLMTAGIKPGELPSGNESASSTPATSAPTSAAASTPQATPTRPATNEVDE
